# Reference: patent US20240016901A1, “COMPOSITIONS AND METHODS FOR PREVENTING AND TREATING SARS-COV-2 INFECTION” (priority 2020, published 2024)
# Columns and labels:
# SARS-CoV-2 = assay: microbe, parasite or virus in culture; assay type: cell-based; conditions: Severe acute respiratory syndrome coronavirus 2, Huh-7 cells
# SigmaR2 = conditions: literature value (Moebius et al. 1997); cited from earlier work
structure (smiles),measurement,setting,value
CCCCc1oc2ccccc2c1C(=O)c1cc(I)c(OCCN(CC)CC)c(I)c1 [Amiodarone],EC50,"SARS-CoV-2; MOI 0.2, 10-point two-fold dilution dose response in triplicate",52 nM
same,IC50,SARS-CoV-2; read-out: IC50 against SARS-CoV-2 infection,52 nM
same,IC50,SigmaR2,1 nM
